Most values lie at the floor of the assay. Slopes are relative: functional sequences can read slightly below zero.
The substances below were run on Saccharomyces cerevisiae PS128 hsf1 delta, HSF1(1-493) fusion (assay: growth estimate (transactivation domain function in HSF1 fusion, heat-shock survival) (a.u. (slope of normalised read count over time)); higher = stronger growth at 37°C, i.e. more transactivation activity). Conditions: library: random library.
Description: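 Random 60-nt DNA library encoding peptides of up to 20 aa, fused to the C-terminus of yeast HSF1 residues 1-493 (C-terminal TAD deleted) and expressed from the native HSF1 promoter on a CEN plasmid in hsf1-deleted S. cerevisiae PS128. Cells were selected at 37°C on -trp 5-FOA plates for 0, 2, 4, 6 and 8 days and amplicons were sequenced. Growth estimate is the slope of a robust linear fit of total-sum-normalised read counts (normalised to the first time point) over time, using at least 2 replicates. Sequences are classed functional (TAD activity) above a threshold of -0.13, set from stop-codon control sequences.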

Row | Substance | growth estimate
1 | HNAMDIVRMRL | < -0.25
2 | HNCPVQEYPACRRAEITLRG | < -0.25
3 | HNEPIRCLNVYSIVRAQ | < -0.25
4 | HNGFGFPVVRLNPVALIMCR | < -0.25
5 | HNGVYTPFSGTN | < -0.25
6 | HNLAVCHSIFQRSRAACAHL | < -0.25
7 | HNPPAQTV | < -0.25
8 | HNRVIEA | < -0.25
9 | HNRWLNRSVVRGGTEVTTMA | < -0.25
10 | HNSFESHIRLVSRYGSRFTY | < -0.25
11 | HNVLCS | < -0.25
12 | HPAVLPSKS | < -0.25
13 | HPDAFHHAGRVLVLKTHVLH | < -0.25
14 | HPDEQGKAARFKVFRRD | < -0.25
15 | HPGLIFLMHDRLGNERHEHY | < -0.25
16 | HPGTRN | < -0.25
17 | HPLPVITHPSRAGWIVLAAS | < -0.25
18 | HPLRSLLVDKRQSPGK | < -0.25
19 | HPLRSTSERFKAAIRHGTES | < -0.25
20 | HPRIDFEHRDIPRLRRNPRL | < -0.25
21 | HPRVNSEANCHRRWTEGSVG | < -0.25
22 | HPSLLERAVTALVQLWVVWI | < -0.25
23 | HPSSGRTDYATTFFLEEYSV | -0.127
24 | HPYGQATFTHNRPRSSSRR | < -0.25

Row | Substance | growth estimate
25 | HQGCSSEELGVKAGIHALRC | < -0.25
26 | HQGIARRRSNIPASNASDKS | < -0.25
27 | HQIQGLHHSYAFTPSLPGAQ | < -0.25
28 | HQNPAETTSGWNDTDLSYGI | < -0.25
29 | HQRGLREYEDNLLAPLVSGR | < -0.25
30 | HQRGPSRIQGRRTVAWELFL | < -0.25
31 | HQTPISSNQLGPRTG | < -0.25
32 | HRA | < -0.25
33 | HRADSLPSQCTKCYCGFLRH | < -0.25
34 | HRCNLLKQIRASLGECLSTT | < -0.25
35 | HRDWPPPE | < -0.25
36 | HRFWVASAHVSVRRS | < -0.25
37 | HRGQSPTLEVIYTSPTAGDR | < -0.25
38 | HRGTRRRVVEITWGVASLMM | < -0.25
39 | HRGVHGVIWFHPRIGWRGTS | < -0.25
40 | HRHPFGRNHEGMPHV | < -0.25
41 | HRHSGH | < -0.25
42 | HRICTVTI | < -0.25
43 | HRIRA | < -0.25
44 | HRIV | < -0.25
45 | HRL | < -0.25
46 | HRLGGHAVKVGPPSRVGKFL | < -0.25
47 | HRLGLSSVRTQNRGTLSHTD | < -0.25
48 | HRLKRWIFARSATAQRFS | < -0.25

Row | Substance | growth estimate
49 | HRLTCIRRGSSVKSVRRQGR | < -0.25
50 | HRMNNFHYRWHL | -0.218
51 | HRPARNRGPLPRYLT | < -0.25
52 | HRPLCTDMLRAAQTTLHVCL | < -0.25
53 | HRSPLVDHQSSEERGKQVGR | < -0.25
54 | HRSQ | < -0.25
55 | HRSRPPVYRFSKAMVRV | < -0.25
56 | HRTFGANNRKGAQSGSAPGR | < -0.25
57 | HRTVGAVEQIVLALNPH | < -0.25
58 | HRVNGRSGGIWPGGHCIPGK | < -0.25
59 | HRVSSCLRKHMGLEWPPMWA | < -0.25
60 | HSALRTGWFIQKMEAVIYIA | < -0.25
61 | HSAR | < -0.25
62 | HSARGIASGPMVLRITTHDQ | < -0.25
63 | HSDLGYLNCVLLSKVKEGLH | < -0.25
64 | HSEDVWEGIH | < -0.25
65 | HSGCAGI | < -0.25
66 | HSISPGQSTIASARFGLAMC | < -0.25
67 | HSKSTLLCWHSHVHLSQQLP | < -0.25
68 | HSLMRPS | < -0.25
69 | HSLVKVGHSNGIKGRWTLSA | < -0.25
70 | HSMRHVPELTLTIGVTCMQI | < -0.25
71 | HSQDSRRRSASLRIKLEVSP | < -0.25
72 | HSRGAVQALPDLPRQGRNGG | < -0.25

Numbers 52–56 of the list above:
Row | Substance | growth estimate
52 | HRPLCTDMLRAAQTTLHVCL | < -0.25
53 | HRSPLVDHQSSEERGKQVGR | < -0.25
54 | HRSQ | < -0.25
55 | HRSRPPVYRFSKAMVRV | < -0.25
56 | HRTFGANNRKGAQSGSAPGR | < -0.25

(listing goes on)

Row | Substance | growth estimate
73 | HSRGGPQLSE | < -0.25
74 | HSRIQASREASHTAPTSVRL | < -0.25
75 | HSRVCLRSLG | < -0.25
76 | HSRYTSSWQNCRLLR | -0.232
77 | HSSGLALWPIADC | -0.0302
78 | HSSGPSGTRSRKILTG | < -0.25
79 | HSTEVHTQAMLPKAHWYGP | < -0.25
80 | HSTRLRPKDGFPCPHKSIQY | < -0.25
81 | HSTS | < -0.25
82 | HSVPLRAGGLTG | < -0.25
83 | HTAAAQ | < -0.25
84 | HTDCLCQKPGVSTYVDAGIC | < -0.25
85 | HTDGPYPTRW | < -0.25
86 | HTDLYGRKT | < -0.25
87 | HTGCGSRKQANGHTRWSSAR | < -0.25
88 | HTGQAGGGAKNSAYPRRPNM | < -0.25
89 | HTKCSVVDSYAVAQLKTGDY | < -0.25
90 | HTKE | < -0.25
91 | HTKWTQGSWHDRAHAVDQGP | < -0.25
92 | HTLGTTANWSNALFVAQ | < -0.25
93 | HTPPR | < -0.25
94 | HTQSITAI | < -0.25
95 | HTRHH | < -0.25
96 | HTRKSAKLRHARYLPRRKVE | < -0.25

Row | Substance | growth estimate
97 | HTRQ | < -0.25
98 | HTSLEKRTYRSVT | < -0.25
99 | HTTWAYVLCL | -0.25
100 | HTVGNELPKEGSSDNAFLRS | < -0.25
101 | HTVLGA | < -0.25
102 | HVAFIVSVTWA | < -0.25
103 | HVGARTCARLRSCMSNSLTT | < -0.25
104 | HVGYELTRKWLSWSRRHT | < -0.25
105 | HVHGKELSV | < -0.25
106 | HVIRSPAYELTKVRYLS | < -0.25
107 | HVIY | < -0.25
108 | HVLFVIFNREPRLGDEKRIG | < -0.25
109 | HVNVRVVQECGAAPEVGPKL | < -0.25
110 | HVPGCDTVEHEISRRP | < -0.25
111 | HVQHGHFIRFFEPAQHVHNV | < -0.25
112 | HVRAIAPTPLFEQ | < -0.25
113 | HVRASPGSYGV | < -0.25
114 | HVRHGYRCEGAWLSWRQVAS | < -0.25
115 | HVRVFFTATMCL | < -0.25
116 | HVSAGHRPCQLRRKERGKRS | < -0.25
117 | HVSDNRMAVLCLTQLVFRTT | < -0.25
118 | HVSDSIK | < -0.25
119 | HVSEVTVISSISVALDL | < -0.25
120 | HVSNRLEVCASWGSPVTPSV | < -0.25

Shown tab-delimited: entries from further up.
Row	Substance	growth estimate
102	HVAFIVSVTWA	< -0.25
116	HVSAGHRPCQLRRKERGKRS	< -0.25
119	HVSEVTVISSISVALDL	< -0.25

Further results follow:

Row | Substance | growth estimate
121 | HVSVSDYRV | < -0.25
122 | HVTVARDP | < -0.25
123 | HVVPNDPPEARSIEEWL | < -0.25
124 | HVWSR | < -0.25
125 | HWAPSMNVFVLVLRAVERRL | < -0.25
126 | HWEGFRGGDWRYLSNGGCIY | < -0.25
127 | HWIEISLSAMGSAGVGRTSG | < -0.25
128 | HWKPEVSASAPLGEVNDT | < -0.25
129 | HWNIIRVEFISGGHDYPTPC | < -0.25
130 | HWNVSRAR | < -0.25
131 | HWTNSFLYSGLVIQADPLF | < -0.25
132 | HWVINRLIAV | < -0.25
133 | HWYTNWF | -0.103
134 | HYAMWGVEFNTLM | < -0.25
135 | HYCKRLMVCYGCAKSRIVSG | < -0.25
136 | HYIFPGAVNEYRGRECCFPG | < -0.25
137 | HYLVGISLSCTARGTHTFCA | < -0.25
138 | HYNSLRTKDFTIL | < -0.25
139 | IAAPKSTLRAQGRSPLFYVR | < -0.25
140 | IAAVKYLNRFK | < -0.25
141 | IAAYLAPACGKSAIPVAMVG | < -0.25
142 | IACGPEQFAWSASLKLAGPR | < -0.25

— the supplement of paper PMC5949888
